Experimental data reported in the supplement of paper PMC8728848.
Some of the results follow.

Experiments:
Assay in all cases: glycan array binding signal (z-score within array); higher = stronger binding
Conditions in all cases: glycan notation: IUPAC condensed, linker removed
[1] = biological target: Gal(b1-3)[Fuc(a1-4)]GlcNAc(b1-3)Gal(b1-4)[Fuc(a1-3)]GlcNAc
In short: (§1)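 Glycan array data were curated from 3228 arrays in the Consortium for Functional Glycomics database and kept only where the protein sequence was available. Glycan names were converted to IUPAC-condensed notation, and columns mapping to the same glycan were averaged. The binding signal is a within-array Z-score, averaged across arrays of the same protein sequence at different concentrations or buffers and across linkers. Negative Z-scores can be read as non-binding.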

[2] = biological target: Gal(b1-3)[Fuc(a1-4)]GlcNAc(b1-6)GalNAc
In short: as §1

[3] = biological target: Gal(b1-3)[GlcNAc(b1-6)]GalNAc
In short: as §1

[4] = biological target: Gal(b1-3)[Neu5Ac(a2-6)]GalNAc
In short: as §1

[5] = biological target: Gal(b1-3)[Neu5Ac(a2-6)]GlcNAc(b1-4)Gal(b1-4)Glc
In short: as §1

[6] = biological target: Gal(b1-3)[Neu5Ac(b2-6)]GalNAc
In short: as §1

Gal(b1-4)Gal = biological target: Gal(b1-4)Gal
In short: as §1

[7] = biological target: Gal(b1-4)GalNAc(a1-3)[Fuc(a1-2)]Gal(b1-4)GlcNAc
In short: as §1

[8] = biological target: Gal(b1-4)GalNAc(b1-3)[Fuc(a1-2)]Gal(b1-4)GlcNAc
In short: as §1

Gal(b1-4)Glc = biological target: Gal(b1-4)Glc
In short: as §1

Gal(b1-4)Glc6S = biological target: Gal(b1-4)Glc6S
In short: as §1

Gal(b1-4)GlcNAc = biological target: Gal(b1-4)GlcNAc
In short: as §1

[9] = biological target: Gal(b1-4)GlcNAc(a1-6)Gal(b1-4)GlcNAc
In short: as §1

Gal(b1-4)GlcNAc(b1-2)Man = biological target: Gal(b1-4)GlcNAc(b1-2)Man
In short: as §1

[10] = biological target: Gal(b1-4)GlcNAc(b1-2)Man(a1-3)Man(b1-4)GlcNAc(b1-4)GlcNAc
In short: as §1

[11] = biological target: Gal(b1-4)GlcNAc(b1-2)Man(a1-3)[Gal(b1-4)GlcNAc(b1-2)Man(a1-6)]Man(b1-4)GlcNAc(b1-4)GlcNAc
In short: as §1

[12] = biological target: Gal(b1-4)GlcNAc(b1-2)Man(a1-3)[Gal(b1-4)GlcNAc(b1-2)Man(a1-6)]Man(b1-4)GlcNAc(b1-4)[Fuc(a1-6)]GlcNAc
In short: as §1

[13] = biological target: Gal(b1-4)GlcNAc(b1-2)Man(a1-3)[Gal(b1-4)GlcNAc(b1-2)Man(a1-6)][Gal(b1-4)GlcNAc(b1-4)]Man(b1-4)GlcNAc(b1-4)[Fuc(a1-6)]GlcNAc
In short: as §1

[14] = biological target: Gal(b1-4)GlcNAc(b1-2)Man(a1-3)[Gal(b1-4)GlcNAc(b1-2)Man(a1-6)][GlcNAc(b1-4)]Man(b1-4)GlcNAc(b1-4)[Fuc(a1-6)]GlcNAc
In short: as §1

[15] = biological target: Gal(b1-4)GlcNAc(b1-2)Man(a1-3)[GlcNAc(b1-2)Man(a1-6)]Man(b1-4)GlcNAc(b1-4)GlcNAc
In short: as §1

[16] = biological target: Gal(b1-4)GlcNAc(b1-2)Man(a1-3)[GlcNAc(b1-4)][Gal(b1-4)GlcNAc(b1-2)Man(a1-6)]Man(b1-4)GlcNAc(b1-4)GlcNAc
In short: as §1

[17] = biological target: Gal(b1-4)GlcNAc(b1-2)Man(a1-3)[Man(a1-6)]Man(b1-4)GlcNAc(b1-4)GlcNAc
In short: as §1

[18] = biological target: Gal(b1-4)GlcNAc(b1-2)Man(a1-6)Man(b1-4)GlcNAc(b1-4)GlcNAc
In short: as §1

[19] = biological target: Gal(b1-4)GlcNAc(b1-2)Man(a1-6)[GlcNAc(b1-2)Man(a1-3)]Man(b1-4)GlcNAc(b1-4)GlcNAc
In short: as §1

[20] = biological target: Gal(b1-4)GlcNAc(b1-2)Man(a1-6)[Man(a1-3)]Man(b1-4)GlcNAc(b1-4)GlcNAc
In short: as §1

[21] = biological target: Gal(b1-4)GlcNAc(b1-2)[Gal(b1-4)GlcNAc(b1-4)]Man(a1-3)[Gal(b1-4)GlcNAc(b1-2)Man(a1-6)]Man(b1-4)GlcNAc(b1-4)GlcNAc
In short: as §1

[22] = biological target: Gal(b1-4)GlcNAc(b1-2)[Gal(b1-4)GlcNAc(b1-4)]Man(a1-3)[Gal(b1-4)GlcNAc(b1-2)[Gal(b1-4)GlcNAc(b1-6)]Man(a1-6)]Man(b1-4)GlcNAc(b1-4)GlcNAc
In short: as §1

[23] = biological target: Gal(b1-4)GlcNAc(b1-2)[Gal(b1-4)GlcNAc(b1-4)]Man(a1-3)[GlcNAc(b1-4)][Gal(b1-4)GlcNAc(b1-2)Man(a1-6)]Man(b1-4)GlcNAc(b1-4)GlcNAc
In short: as §1

[24] = biological target: Gal(b1-4)GlcNAc(b1-2)[Gal(b1-4)GlcNAc(b1-4)]Man(a1-3)[GlcNAc(b1-4)][Gal(b1-4)GlcNAc(b1-2)[Gal(b1-4)GlcNAc(b1-6)]Man(a1-6)]Man(b1-4)GlcNAc(b1-4)GlcNAc
In short: as §1

[25] = biological target: Gal(b1-4)GlcNAc(b1-2)[Gal(b1-4)GlcNAc(b1-6)]Man(a1-6)[Gal(b1-4)GlcNAc(b1-2)Man(a1-3)]Man(b1-4)GlcNAc(b1-4)GlcNAc
In short: as §1

[26] = biological target: Gal(b1-4)GlcNAc(b1-2)[Gal(b1-4)GlcNAc(b1-6)]Man(a1-6)[Gal(b1-4)GlcNAc(b1-2)Man(a1-3)]Man(b1-4)GlcNAc(b1-4)[Fuc(a1-6)]GlcNAc
In short: as §1

[27] = biological target: Gal(b1-4)GlcNAc(b1-2)[Gal(b1-4)GlcNAc(b1-6)]Man(a1-6)[GlcNAc(b1-4)][Gal(b1-4)GlcNAc(b1-2)Man(a1-3)]Man(b1-4)GlcNAc(b1-4)GlcNAc
In short: as §1

[28] = biological target: Gal(b1-4)GlcNAc(b1-2)[Gal(b1-4)GlcNAc(b1-6)]Man(a1-6)[GlcNAc(b1-4)][Gal(b1-4)GlcNAc(b1-2)[Gal(b1-4)GlcNAc(b1-4)]Man(a1-3)]Man(b1-4)GlcNAc(b1-4)[Fuc(a1-6)]GlcNAc
In short: as §1

[29] = biological target: Gal(b1-4)GlcNAc(b1-3)Gal(b1-3)GalNAc
In short: as §1

[30] = biological target: Gal(b1-4)GlcNAc(b1-3)Gal(b1-3)GlcNAc
In short: as §1

[31] = biological target: Gal(b1-4)GlcNAc(b1-3)Gal(b1-4)Glc
In short: as §1

[32] = biological target: Gal(b1-4)GlcNAc(b1-3)Gal(b1-4)GlcNAc
In short: as §1

[33] = biological target: Gal(b1-4)GlcNAc(b1-3)Gal(b1-4)GlcNAc(b1-2)Man(a1-3)[Gal(b1-4)GlcNAc(b1-3)Gal(b1-4)GlcNAc(b1-2)Man(a1-6)]Man(b1-4)GlcNAc(b1-4)GlcNAc
In short: as §1

B1: Epa8 (Candida glabrata) (protein)
chain: MGSSHHHHHHSSGLVPRGSHMASSRALSDYPLGCSPLLGTKLTPGLSMELYEYPLDNHGIGPHCWDPAYLNPEYPRTGFESHKLIGTAQNVMSLNFEHRTQDCHVEFSNLPASFNFPDQITLTNFTMLLYGYFKPKESGRYRFHMEADDLLLMNLGAGNAFDCCAHEATRNNLGDYIAYDIWAGTRKDVEVFLEKEVFYPLRLFFNNRDGRAALDFSYYLNGATEPGTDIPELLFSLPDGESCPAYI
glycan array binding signal (z-score) [1]: -0.26
glycan array binding signal (z-score) [2]: 2.52
glycan array binding signal (z-score) [3]: -0.362
glycan array binding signal (z-score) [4]: -0.016
glycan array binding signal (z-score) [5]: -0.392
glycan array binding signal (z-score) [6]: 0.899
glycan array binding signal (z-score) (Gal(b1-4)Gal): -0.214
glycan array binding signal (z-score) [7]: -0.994
glycan array binding signal (z-score) [8]: -0.537
glycan array binding signal (z-score) (Gal(b1-4)Glc): -1.15
glycan array binding signal (z-score) (Gal(b1-4)Glc6S): 0.19
glycan array binding signal (z-score) (Gal(b1-4)GlcNAc): -0.292
glycan array binding signal (z-score) [9]: -0.076
glycan array binding signal (z-score) (Gal(b1-4)GlcNAc(b1-2)Man): 0.284
glycan array binding signal (z-score) [10]: -0.289
glycan array binding signal (z-score) [11]: -0.175
glycan array binding signal (z-score) [12]: 0.15
glycan array binding signal (z-score) [13]: -1.75
glycan array binding signal (z-score) [14]: -0.729
glycan array binding signal (z-score) [15]: -0.13
glycan array binding signal (z-score) [16]: -1.47
glycan array binding signal (z-score) [17]: 1.16
glycan array binding signal (z-score) [18]: -0.287
glycan array binding signal (z-score) [19]: -0.09
glycan array binding signal (z-score) [20]: 1.02
glycan array binding signal (z-score) [21]: -0.48
glycan array binding signal (z-score) [22]: -0.119
glycan array binding signal (z-score) [23]: 0.045
glycan array binding signal (z-score) [24]: -1.43
glycan array binding signal (z-score) [25]: -1.33
glycan array binding signal (z-score) [26]: 0.139
glycan array binding signal (z-score) [27]: 0.057
glycan array binding signal (z-score) [28]: -0.322
glycan array binding signal (z-score) [29]: -1.06
glycan array binding signal (z-score) [30]: -0.498
glycan array binding signal (z-score) [31]: 0.049
glycan array binding signal (z-score) [32]: -0.11
glycan array binding signal (z-score) [33]: 1.19
